No constants are given. Whether binding was seen depends on the method and setting. In cells and extracts the contact can be indirect. Binding can be weak; no strength is given.
Columns and labels:
Experiment in all cases: pull-down; CBD-tagged bait and one untagged prey co-produced in Hfx. volcanii CBDX/Y transformants; lysate in 2.5 M KCl buffer pH 8.0 bound to cellulose (Avicel), six washes, elution with ethylene glycol, Western analysis with Gvp antisera
[1] = target: T1, CBDA (Halobacterium salinarum) (UniProt P08958)
T1 sequence: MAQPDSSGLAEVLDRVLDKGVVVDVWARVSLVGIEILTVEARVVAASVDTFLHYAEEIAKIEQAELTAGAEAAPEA

Sequences of proteins named here, by UniProt entry; tags and fusion partners are left off. A change or cut given only in a name is not applied to a line headed by its entry.
UniProt Q9HI16: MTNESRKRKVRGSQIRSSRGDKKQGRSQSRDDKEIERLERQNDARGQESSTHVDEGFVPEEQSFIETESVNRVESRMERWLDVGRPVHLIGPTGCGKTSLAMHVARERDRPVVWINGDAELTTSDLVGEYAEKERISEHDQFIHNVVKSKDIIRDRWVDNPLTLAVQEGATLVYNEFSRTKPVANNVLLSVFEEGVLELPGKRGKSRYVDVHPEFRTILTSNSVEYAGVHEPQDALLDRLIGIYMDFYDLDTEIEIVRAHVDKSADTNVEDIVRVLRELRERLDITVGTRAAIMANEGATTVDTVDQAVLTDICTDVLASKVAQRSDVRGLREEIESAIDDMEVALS

[2] = target: T2, CBDC (Halobacterium salinarum) (UniProt P24574)
T2 sequence: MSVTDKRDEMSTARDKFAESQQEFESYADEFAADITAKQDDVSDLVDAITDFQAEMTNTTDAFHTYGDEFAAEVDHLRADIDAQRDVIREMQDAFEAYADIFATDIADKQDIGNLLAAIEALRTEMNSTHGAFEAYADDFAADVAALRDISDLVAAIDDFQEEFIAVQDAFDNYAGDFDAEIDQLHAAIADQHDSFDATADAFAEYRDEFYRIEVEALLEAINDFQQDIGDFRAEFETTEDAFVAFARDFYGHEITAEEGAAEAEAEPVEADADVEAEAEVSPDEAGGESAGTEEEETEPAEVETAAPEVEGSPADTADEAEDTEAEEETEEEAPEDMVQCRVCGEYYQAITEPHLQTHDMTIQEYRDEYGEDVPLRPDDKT

[3] = target: T3, CBDO (Halobacterium salinarum) (UniProt O51968)
T3 sequence: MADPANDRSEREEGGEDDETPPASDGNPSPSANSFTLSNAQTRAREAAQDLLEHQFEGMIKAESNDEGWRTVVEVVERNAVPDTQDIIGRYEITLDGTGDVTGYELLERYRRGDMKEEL

Measured: binding

GvpN (from UniProt Q9HI16)
binds: [1] | [2] | [3]
